The record followed here is patent US20250361295A1.

Where a chain is given by its changes, count along the chain named. These are yes or no findings as the source states them, for the method shown.

The assay has as its target cynomolgus (Macaca fascicularis) LILRB4 (cynomolgus (Macaca fascicularis)). Briefly: FACS, CHO-S-cynoLILRB4 cells.

B1: ch10-H9-E3-G3 (antibody, V domains shown)
VH: EVQRVESGGGLVQPGGSRKLSCAASGFTFSSFGMHWVRQAPEKGLEWVAYISSGSSAMYYADTVKGRFTISRDNPKNTLFLQMTSLRSEDTAMYYCARSDGKGAMDYWGQGTSVTVSS
VL: DIQMTQTTSSLSASLGDRVTISCRASQDISNYLNWYQQKPDGTVKLLVYYTSRLHSGVPSRFSGSGSGTDYSLTISNLEQEDIATYFCQQGNTLPWTFGGGTKLEIK
As to B1, the binding entry is reported as “no binding (tested: up to 66.67 nM)”.

B2: ch25-E7-A10-H6 (antibody, V domains shown)
VH: B1 VH with R4L, S31T, A57T, M58I, D100T, K102T
VL: B1 VL with N31K, V48I
On to B2, for which the binding entry is reported as “no binding (tested: up to 66.67 nM)”.

B3: 27-G5-E9-B8 (antibody, V domains shown)
VH: B1 VH with R4L, A57T, M58I, D100T, K102T
VL: B1 VL with R18S, I21F, V48I, Y49S, T93A
On to B3, for which the binding result is recorded as “no binding”.

B4: ch2-H1-D7-E5-D5 (antibody, V domains shown)
VH: B1 VH with Q3H, R4L, A40P, A57S, M58I, S99G, D100T, K102T
VL: B1 VL with A25T, V48I, R53K, E79D
As to B4, the binding result was “no binding (tested: up to 66.67 nM)”.

B5: 27-F11-E10-G10 (antibody, V domains shown)
VH: B1 VH with R4L, A57T, M58I, T69S, Y94F, D100T, K102T
VL: B1 VL with V48I, I106L
Take B5: the binding entry is “no binding”.

B6: ch26-H9-B9-B7 (antibody, V domains shown)
VH: B1 VH with A57T, M58I
VL: B1 VL with Q3V, T7S, V48I
B6: the binding result was “no binding (tested: up to 66.67 nM)”.

B7: ch27-D11-C2-A10 (antibody, V domains shown)
VH: B1 VH with R4L, S31V, M34V, S56N, A57T, M58I, Y59H, N74I, D100S, K102T
VL: B1 VL with T7S, T20S, T43A, V48I, E79D, I106L
Regarding B7, the binding entry is reported as “no binding (tested: up to 66.67 nM)”.

B8: ch7-B4-C1-C9 (antibody, V domains shown)
VH: EVQLQQSGTELVKPGASVKLSCKASGYTFTNYWMHWVKQRPGQGLEWIGEINPSNGRTNYNEKFKTKATLTVDKSSSTAYMQLSSLTSEDSAVYYCARSTYYGYDWYFDVWGAGTTVTVSS
VL: DIVLTQSPSSMYASLGERVTITCKASQDINSYLSWFQQKPGKSPKTLIYRANRLLDGVPSRFSGGGSGQDYSLTISSLEHEDMGIYYCLQCDEFPHTFGGGTKLEIK
As to B8, the binding result is “no binding (tested: up to 66.67 nM)”.

B9: ch42-C8-A12-F3-D11 (antibody, V domains shown)
VH: EVHLVESGGDLVKPGGSLKLSCAASGFTFSSHGMSWVRQTPDKRLEWVATISSGGIYTYHPDSVKGRFSISRDNAKKTLYLQMSSLKSEDTGIYYCTRGQVGNWYFDVWGAGTTVTVSS
VL: DIVITQSPAIMSASPGEKVTINCSASSSVSYMHWFQQTPGTSPKLWIYSTSNLASGVPARFSGSGSGTFYSLTISRMEAEDAATYYCQQRSSYPLTFGAGTKLELK
As for B9, the binding entry is reported as “no binding (tested: up to 66.67 nM)”.

B10: ch25-G9-G4-C12 (antibody, V domains shown)
VH: B9 VH with H3Q, S52N, I56Y, H60Y, S69T, K77N, G92A, I93M, T97A, V101L
VL: B9 VL with I4M, N22T, T38K, F69S
Consider B10, for which the binding result is “no binding (tested: up to 66.67 nM)”.

B11: ch4-E6-E4-B12 (antibody, V domains shown)
VH: EVQLKESGAELVKPGASVKLSCKASGYTFTSHWMHWVKQRPGQGLEWIGEINPSNGRTNYNEKFTSKATLTVDQSSSTAYMQLSSLTSEDSAVYYCARGNLTTVVPFDYWGQGTALTVSS
VL: DIVMTQSPSSLSASLGGKVTITCKASQDINKFIAWYQHKPGKGPRLLIHFTSTLQPGIPSRFSGSGSGRDYSFSISNLEPEDIATYFCLQYDLLLTFGGGTKLEIK
With B11, the binding result is “no binding (tested: up to 66.67 nM)”.

B12: 4-E6-E4-B12 (antibody, V domains shown)
VH: B11 VH
VL: B11 VL
Turning to B12, the binding result is “no binding”.

B13: ch2-H8-C9-F7-E2 (antibody, V domains shown)
VH: B11 VH with K5Q, E6Q, S31N, H32Y, T65K, Q74K, N100S, A115T
VL: DIQMTQTPSSLSASLGGKVTITCKASQDINNYIAWYQHKPGKGPRLLIHYTSTLQPGIPSRFSGSGSGRDYSFSISNLEPEDIATYFCLQYDILLTFGGGTKLEK
B13: the binding entry is “no binding (tested: up to 66.67 nM)”.
